Test results from the supplement of paper PMC12009310.
Counter-ions that a name gives are not always drawn. ± gives the standard deviation of the averaged measurements. The list shows a part of the results. Baselines shift from plate to plate; read single values as rough.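 The cells are a mouse kidney inner medullary collecting duct line, silenced either for the ciliary gene Rpgrip1l or with a non-targeting control siRNA.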

Key:
mIMCD3 [1] = assay: robust z score of cell number vs plate controls; higher = more cells (less cytotoxic); settings: 10 µM, 48 h
mIMCD3 [2] = assay: robust z score of cilia incidence (% cells with single cilium) vs plate controls; higher = more ciliated cells; settings: 10 µM; 48 h; siRNA: siScr
mIMCD3 [3] = assay: robust z score of cilia incidence (% cells with single cilium) vs plate controls; higher = more ciliated cells (rescue of cilia loss); settings: 10 µM; 48 h; siRNA: siRpgrip1l

| Compound | robust z score of cell number (mIMCD3 [1]; siRNA: siRpgrip1l) | robust z score of cell number (mIMCD3 [1]; siRNA: siScr) | robust z score of cilia incidence (mIMCD3 [2]) | robust z score of cilia incidence (mIMCD3 [3]) |
| --- | --- | --- | --- | --- |
| CCCN1CCC[C@@H]2Cc3n[nH]cc3C[C@H]21 [(-)-Quinpirole hydrochloride] | -8.03 ± 0.23 | 1.38 ± 1.3 | -0.168 ± 1.5 | -14.1 ± 3.5 |
| CC(C(=O)OC1CC2CCC(C1)N2C)c1ccc(Br)cc1 (centres undefined) [PG-9 maleate] | -35.3 ± 4.7 | -25.4 ± 4.8 | -40.3 ± 7.6 | -38.6 ± 0.59 |
| CC1=NN=C(c2ccc(N)cc2)c2cc3c(cc2C1)OCO3 | -86.8 ± 94 | -20.9 ± 7 | -9.55 ± 5.1 | -287 ± 160 |
| CN(C(=O)Cc1ccc(Cl)c(Cl)c1)[C@H](CN1CCCC1)c1ccccc1 [ICI-199,441 hydrochloride] | -40.8 ± 3.1 | -27.8 ± 6.5 | -22.5 ± 9.4 | -31.3 ± 2.5 |
| N[C@@H]1C[C@H]1c1ccccc1 [Tranylcypromine hydrochloride] | -0.666 ± 4.5 | -3.4 ± 6.8 | -2.41 ± 0.21 | -9.89 ± 4.2 |
| Fc1ccc(C(OCCN2CCN(CCCc3ccccc3)CC2)c2ccc(F)cc2)cc1 | -126 ± 100 | -83.6 ± 45 | -27.1 ± 24 | -48.8 ± 26 |
| O=C1NC(=O)c2c1c1c3ccccc3[nH]c1c1[nH]c3ccccc3c21 [Arcyriaflavin A] | -14.9 ± 9.1 | -13.7 ± 1.2 | -4.55 ± 5.3 | -13.9 ± 7.2 |
| Cc1ccc(C[N+](C)(C)C)o1 [5-Methylfurmethiodide] | 0.41 ± 4.8 | -2.5 ± 1.6 | 1.22 ± 0.3 | -12.4 ± 2.9 |
| N=C(N)NN [Aminoguanidine hydrochloride] | -3.59 ± 0.093 | -0.393 ± 2.2 | 0.467 ± 0.69 | -5.35 ± 1.2 |
| O=C1Nc2cc(Cl)c(Cl)cc2N2CCNCC12 (centres undefined) | -3.45 ± 3.8 | -3.42 ± 3.8 | 2.71 ± 4.5 | -16.5 ± 12 |
| O=C1/C(=C/c2ccccc2)C[C@@]2(O)[C@H]3Cc4ccc(O)c5c4[C@@]2(CCN3CC2CC2)[C@H]1O5 [BNTX maleate] | -30.66 ± 0.27 | -29.6 ± 15 | -45.9 ± 8.3 | -27.5 ± 4.9 |
| CC(C)[C@@]1(NC(=O)[C@@H]2C[C@@H]3c4cccc5[nH]cc(c45)C[C@H]3N(C)C2)O[C@@]2(O)[C@@H]3CCCN3C(=O)[C@H](Cc3ccccc3)N2C1=O [Dihydroergocristine mesylate] | -73.5 ± 61 | -38.6 ± 23 | -18.3 ± 4.3 | -37.6 ± 20 |
| C1CCc2nnnn2CC1 [Pentylenetetrazole] | -31.5 ± 33 | -20.1 ± 4.2 | -9.4 ± 4 | -19.2 ± 3.9 |
| Nc1ccncc1 [4-Aminopyridine] | 1.32 ± 6.8 | -0.862 ± 4.8 | 2.25 ± 1.6 | -10.7 ± 8.5 |
| C#CCOC(=O)C1=CCCN(C)C1 [Arecaidine propargyl ester tosylate] | -18.5 ± 16 | -7.06 ± 3.6 | -0.242 ± 4.3 | -13.9 ± 9.7 |
| Cc1ncsc1CCCl [Chlormethiazole hydrochloride] | -2.19 ± 1.4 | 2.4 ± 4.2 | -1.06 ± 4.7 | -7.4 ± 2.7 |

Two of the compounds above, bar-delimited:
Compound | robust z score of cell number (mIMCD3 [1]; siRNA: siRpgrip1l) | robust z score of cell number (mIMCD3 [1]; siRNA: siScr) | robust z score of cilia incidence (mIMCD3 [2]) | robust z score of cilia incidence (mIMCD3 [3])
CC(C(=O)OC1CC2CCC(C1)N2C)c1ccc(Br)cc1 (centres undefined) [PG-9 maleate] | -35.3 ± 4.7 | -25.4 ± 4.8 | -40.3 ± 7.6 | -38.6 ± 0.59
O=C1/C(=C/c2ccccc2)C[C@@]2(O)[C@H]3Cc4ccc(O)c5c4[C@@]2(CCN3CC2CC2)[C@H]1O5 [BNTX maleate] | -30.66 ± 0.27 | -29.6 ± 15 | -45.9 ± 8.3 | -27.5 ± 4.9
